Experimental data from patent US20050148035A1.
These are yes or no findings as the source states them, for the method shown. Some binding calls cover weakened binding; strength is not graded here.

Protein sequences, listed by entry. Tags and fused reporters are not part of them. Lines headed by an entry give the natural chain unless they say otherwise; changes in a name come on top. Residues count along the entry.
UniProt P05019, residues 49-118: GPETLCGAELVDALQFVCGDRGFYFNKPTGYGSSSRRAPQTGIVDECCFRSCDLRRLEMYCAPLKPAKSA
UniProt P17936: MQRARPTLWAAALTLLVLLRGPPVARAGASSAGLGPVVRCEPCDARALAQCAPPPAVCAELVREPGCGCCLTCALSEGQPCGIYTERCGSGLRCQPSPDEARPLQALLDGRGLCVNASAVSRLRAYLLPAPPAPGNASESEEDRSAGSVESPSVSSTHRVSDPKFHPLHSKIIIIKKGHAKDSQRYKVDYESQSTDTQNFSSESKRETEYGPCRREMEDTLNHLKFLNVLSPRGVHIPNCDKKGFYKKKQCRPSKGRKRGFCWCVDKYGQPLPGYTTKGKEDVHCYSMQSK

Target: native-sequence human IGF-I (human) (UniProt P05019)
Assay: BIAcore

binding: binds
Substance: native-sequence human IGFBP-3 (from UniProt P17936 28-291)
